Laboratory results reported in paper PMC9257412.
These are yes or no findings as the source states them, for the method shown. Binding seen in cells or lysates may run through a third protein. A result given as binding can be weak or reduced; the word gives no strength.

Protein sequences, listed by entry. Tags and fused reporters are not part of them. Lines headed by an entry give the natural chain unless they say otherwise; changes in a name come on top.
UniProt Q583Z0: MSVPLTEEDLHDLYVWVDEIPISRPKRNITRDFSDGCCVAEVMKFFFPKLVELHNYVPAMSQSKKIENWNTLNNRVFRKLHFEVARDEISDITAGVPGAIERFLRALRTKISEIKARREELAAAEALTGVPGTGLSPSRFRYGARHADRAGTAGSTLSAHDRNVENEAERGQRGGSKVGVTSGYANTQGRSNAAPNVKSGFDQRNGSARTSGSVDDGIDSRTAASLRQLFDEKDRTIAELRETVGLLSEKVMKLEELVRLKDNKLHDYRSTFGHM

Target: GST-TbSpef1 (T. brucei) (UniProt Q583Z0)
Experiment: pull-down; GST-TbSpef1 on glutathione sepharose 4B beads as bait; T. brucei lysate with NHL1-3HA as prey; 25 mM Tris-HCl pH 7.6, 150 mM NaCl, 1 mM DTT, 1% NP-40; 1 h at 4 °C; anti-HA Western blot; only the target purified

- binding: binds
Substance: NHL1-3HA (from UniProt Q38EV3)
